These are yes or no findings as the source states them, for the method shown. In cells and extracts the contact can be indirect. Some results given as binding are weak or reduced against the parent protein; the word gives no strength.

Our source for the binding values is PMC10400764.

In this assay the target is PDGFRβ (human (endogenous in HUVEC and HBVP)) (UniProt P09619). In words: co-IP; HBVPs treated with lenvatinib at different concentrations for 2 h, then 60 ng/ml VEGF and 20 ng/ml PDGF-BB; lysate precipitated with PDGFRβ antibody, Protein A/G magnetic beads, blots for VEGFR2 and NRP-1.

As to “VEGFR2 (from UniProt P35968 20-1356) (receptor)”, the binding result is “binds”.
